Some of the results follow. The main result of the screen is listed elsewhere. These columns were measured beside it and carry no call. Most of these compounds were active or inconclusive in the main read-out, so they are no random draw. Potencies come from curve fits of mixed quality, noted in brackets.
Test: qHTS Assay for Lipid Storage Modulators in Drosophila S3 Cells;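 for cell number change: cells counted by Cell Tracker Red CMTPX staining in the red channel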
Settings: BODIPY lipid droplet fluorescence, 18-24 h; for cell number change: measured here: cell count max response, cells fed with added oleic acid
Outline: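 Drosophila S3 cells loaded with oleic acid (400 uM, as added) and compounds at several concentrations; lipid droplets imaged by 488-nm laser-scanning cytometry, 500–530 nm intensity and object ratio to cell channel. Percent activity normalized to 20 uM Triacsin C.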

[1] = measured here: cell number channel AC50, cells fed with added oleic acid
[2] = measured here: lipid fluorescence (Fed channel) AC50, cells fed with added oleic acid

SMILES | cell number change [%] | AC50 [1] | AC50 [2]
COC(=O)c1sccc1NC(=O)Nc1cc(OC)ccc1OC | 19 | 2.06 µM [rising, partial curve] | 25.9 µM [rising, single point]
COc1cc(OC)cc(-c2c(-c3cccs3)c3cc(-c4ccc5c(c4)OCCO5)ccc3n2C)c1 | -11.4 |  | 
CCc1ccc(CNc2ccc3c(c2)ncn3C)cc1 | -19.7 |  | 18.4 µM [falling, single point]
N#Cc1ccccc1NC(=O)COC(=O)CCc1ccc(S(=O)(=O)N2CCCCC2)cc1 | -11.7 |  | 0.146 µM [falling, full curve, poor fit]
Nc1ncccc1OCc1cccc(C(F)(F)F)c1 | -27.3 |  | 29.1 µM [falling, single point]
Cc1ccc(C(=O)NNC(=O)c2ccccc2-n2cccc2)cc1 | -39.4 |  | 
O=C(C1=C[C@@H](c2ccc3c(c2)OCO3)C[C@@H](OCCCCO)O1)N1CCOCC1 | 29.3 |  | 0.0651 µM [rising, full curve, poor fit]
NC(=O)Nc1n[nH]c(-c2ccccc2)n1 | 11 |  | 18.4 µM [rising, single point]
CCN=C1S/C(=C\c2ccc(-c3cccc(C(=O)O)c3)o2)C(=O)N1CC | -3.84 |  | 4.61 µM [falling, full curve, poor fit]
COc1ccc([N+](=O)[O-])cc1NCC(=O)Nc1cc(S(=O)(=O)N2CCCCC2)ccc1C |  |  | 0.00461 µM [falling, full curve, poor fit]
NC(=O)c1ccc(SCC(=O)NC2CCCCC2)c([N+](=O)[O-])c1 | -12.1 |  | 
CCCNC(=O)COC(=O)c1cccnc1Nc1ccccc1F | 8.14 |  | 29.1 µM [rising, single point]
Cc1ccccc1CCNC(=O)C1CCN(S(=O)(=O)c2ccc(-n3cnnn3)cc2)CC1 | 28.4 |  | 29.1 µM [rising, single point]
COC(=O)c1cc(C(=O)OC)n(Cc2ccc(F)cc2)n1 |  | 2.91 µM [rising, single point] | 
COc1ccc(C2/C(=C(\O)c3ccc4c(c3)OCCO4)C(=O)C(=O)N2Cc2cccnc2)cc1OC (stereo not drawn) | 7.55 |  | 29.1 µM [rising, single point]
COc1ccc(C(=O)NC2CCN(C(=S)Nc3cc(C)cc(C)c3)CC2)cc1 | 13.4 | 3.26 µM [falling, single point] | 6.51 µM [falling, single point]
COc1ccc(/C=N/n2cncn2)cc1Cn1nc(C)c([N+](=O)[O-])c1C | -8 |  | 0.164 µM [rising, partial curve, poor fit]
CCN(CC)S(=O)(=O)c1cccc(C(=O)N2CC(O)CC2C(=O)OC)c1 (stereo not drawn) | 5.81 |  | 0.0731 µM [falling, full curve, poor fit]
CCOC(=O)c1c(-c2ccc(C)o2)csc1N | 8.3 | 4.11 µM [rising, single point] | 

SMILES | cell number change [%] | AC50 [1] | AC50 [2]
Cc1cc(C)cc(NC(=O)CCn2ccnc2C)c1 | -21.4 | 0.146 µM [falling, full curve, poor fit] | 3.26 µM [falling, full curve]
CC(C)c1ccc2c(c1)C1(NN=C(c3ccccc3)S1)C(=O)N2 (stereo not drawn) | -79 | 13 µM [falling, partial curve] | 14.6 µM [falling, partial curve]
CC1=C(C(=O)NCc2ccccc2)C(c2ccc(C)o2)n2ncnc2N1 (stereo not drawn) | 23.2 |  | 0.731 µM [rising, single point]
COc1ccc2[nH]c(=O)c(CN(Cc3ccccc3)Cc3nnnn3CC3CCCO3)cc2c1 (stereo not drawn) | 9.01 | 6.51 µM [rising, single point] | 0.13 µM [rising, full curve, poor fit]
Cn1c(=NC(=O)c2ccco2)sc2cccc(F)c21 | 7.27 |  | 
CCOC(=O)c1c(C)c(C(=O)N2CCN(c3cccc(Cl)c3)CC2)c(C)n1C | -20.8 |  | 32.6 µM [rising, single point]
CCOc1ccc(C(=O)NCC(=O)OCC(=O)NC2CCCC2)cc1 | -9.86 | 0.103 µM [falling, full curve, poor fit] | 0.731 µM [rising, partial curve, poor fit]
CCSc1ccc([C@@H]2[C@H]3C(=O)N(CC)C(=O)[C@H]3[C@]3(C(=O)OC)CCCCN23)cc1 | 20.2 |  | 0.651 µM [rising, full curve, poor fit]
N#C/C(=C\Nc1ccc2cn[nH]c2c1)c1nc(-c2ccccc2)cs1 | -65.3 | 29.1 µM [falling, single point] | 29.1 µM [falling, single point]
CC(C)(C)c1ccc(C(=O)Nc2cccnc2)cc1 | 7.77 |  | 6.51 µM [falling, single point]
CN(Cc1ccccc1)C(=O)CCn1c(=O)oc2ccccc21 | -1.22 | 6.51 µM [falling, single point] | 0.0206 µM [falling, full curve, poor fit]
CCCCNC(=O)CC(=O)Nc1ccccc1C(=O)O |  |  | 23.1 µM [rising, partial curve]
CC(=O)Nc1cccc(C(=O)OCN2C(=O)c3ccccc3C2=O)c1 | -13.3 |  | 0.58 µM [rising, single point]
CC(NC(=O)c1cc(-c2ccc(Br)cc2)on1)c1ccccc1 (stereo not drawn) | 36.9 | 2.59 µM [rising, partial curve, poor fit] | 0.0231 µM [rising, full curve]
COc1ccccc1C(=O)NNC(=O)C(=O)Nc1ccc(C)c(Cl)c1 | 44.4 | 18.4 µM [rising, single point] | 29.1 µM [rising, single point]
O=C(c1ccccc1)c1nn(-c2ccc(Cl)cc2)cc1C(=O)c1cc2ccccc2oc1=O |  | 0.259 µM [rising, full curve] | 2.59 µM [rising, partial curve]
N=c1sccn1CC(=O)N1N=C(c2ccc(Cl)cc2)CC1c1ccco1 (stereo not drawn) |  | 0.00411 µM [rising, full curve, poor fit] | 
COc1ccc(Cl)cc1N(CC(=O)N1CCC(C)CC1)S(C)(=O)=O |  |  | 1.64 µM [falling, partial curve]
Nc1nonc1/C(=N/O)N1CCCC1 | -15.4 | 0.0231 µM [falling, full curve, poor fit] | 4.11 µM [falling, single point]

SMILES | cell number change [%] | AC50 [1] | AC50 [2]
CC(O)c1nc(C(C)O)n(CC(=O)c2ccccc2)n1 (stereo not drawn) | -19.3 |  | 
C=CCOC(=O)C1=C[C@H](c2coc3ccccc3c2=O)[C@@H](CCCO)[C@H](OCC)O1 | 27.9 |  | 0.103 µM [rising, full curve, poor fit]
O=C(CN1CCCC1c1cccs1)N1CCN(S(=O)(=O)c2ccccc2)CC1 (stereo not drawn) | 46 | 29.1 µM [rising, single point] | 
CCN(C(=O)COC(=O)c1cccnc1SC)C1CCCCC1 | -4.76 |  | 29.1 µM [rising, single point]
Nc1nonc1C(=O)N/N=C/c1cc2c(cc1Br)OCO2 | 20.5 |  | 13 µM [rising, partial curve]
Cc1cc([N+](=O)[O-])nn1CCCC(=O)NCc1ccc(F)cc1 | -8.14 | 6.51 µM [rising, single point] | 
CCCN1C2CCCC1CC(NC(=S)Nc1cccc(C)c1C)C2 (stereo not drawn) | -11.3 |  | 0.731 µM [falling, full curve, poor fit]
Cc1ccc(C)c(OCCn2cc(/C=C(/C#N)C(=O)NCC3CCCO3)c3ccccc32)c1 (stereo not drawn) | 29.7 | 0.103 µM [rising, partial curve, poor fit] | 29.1 µM [falling, single point]
Cn1c(=O)[nH]c(=O)c2c1nc(N1CCN(Cc3ccccc3)CC1)n2CCCc1ccccc1 | 20.5 |  | 2.31 µM [rising, partial curve]
CCOc1ccc(CN(C)C(=O)[C@H](Cc2ccccc2)NC(=O)OCc2ccccc2)cc1OC |  |  | 7.31 µM [falling, partial curve]
CN(CCc1ccccc1)C1CCCN(C(=O)Cn2cccn2)C1 (stereo not drawn) | -2.55 |  | 29.1 µM [falling, single point]
CCOC(=O)C1CCN(c2ccc([N+](=O)[O-])cc2S(=O)(=O)N2CCOCC2)CC1 | 21.3 | 0.00411 µM [rising, full curve, poor fit] | 
O=C(c1ccc(Cl)c([N+](=O)[O-])c1)N1CCN(S(=O)(=O)c2ccc(Cl)cc2)CC1 | -24.6 |  | 
Cc1nc(C/C(=N\N)c2ccc(O)cc2O)cs1 | 96.9 | 23.1 µM [rising, single point] | 
COc1cccc(CN2CCNC(=O)C2CC(=O)NCc2cn3ccc(C)cc3n2)c1OC (stereo not drawn) | -1.16 | 0.0731 µM [falling, full curve, poor fit] | 
O=C(NCCCN1CCCC1=O)c1cc(-c2ccc3c(c2)OCO3)nc2ccccc12 | 128 | 4.11 µM [falling, single point] | 6.51 µM [falling, single point]
O=C(NC(=S)Nc1ccc(S(=O)(=O)N2CCCCC2)cc1)c1ccc(Cl)cc1 | -11.3 |  | 0.651 µM [rising, full curve]
COc1ccc(C(=O)NC(=S)Nc2ccccc2F)cc1 | -6.75 |  | 0.116 µM [falling, full curve, poor fit]

Ordered by heavy-atom count (smallest number first): 3 of the compounds above.
SMILES | cell number change [%] | AC50 [1] | AC50 [2]
Nc1nonc1C(=O)N/N=C/c1cc2c(cc1Br)OCO2 | 20.5 |  | 13 µM [rising, partial curve]
Cc1cc([N+](=O)[O-])nn1CCCC(=O)NCc1ccc(F)cc1 | -8.14 | 6.51 µM [rising, single point] | 
CCOc1ccc(CN(C)C(=O)[C@H](Cc2ccccc2)NC(=O)OCc2ccccc2)cc1OC |  |  | 7.31 µM [falling, partial curve]

From PubChem BioAssay AID2685 (National Center for Advancing Translational Sciences (NCATS), 2010)
